Laboratory results as given in US9193951B2, “Differentiation method for production of glial cell populations” (Case Western Reserve University, priority 2010, dated 2015).
At least one compound was matched to its structure with a doubt left. Some entries share one result that the patent states for a list of compounds.

Experiments:
[1] = test system: epiblast stem cells (EpiSCs); assay: Differentiation of EpiSCs to neuroectoderm; type: cell-based, mice; conditions: combined treatment: SB431542, dorsomorphin or LDN-193189, and noggin
[2] = test system: EpiSC-derived patterned neuroectoderm; assay: Region-specific patterning of EpiSC-derived neuroectoderm; type: cell-based, mice; conditions: Day-4 neuroectoderm treated 1 day with retinoic acid and SHH in continued presence of noggin (combined)

| Molecule | EpiSC colonies forming patterned neuroectoderm expressing both Pax6 and Sox1 [1] [%] | expression of OPC-relevant transcription factors Olig2 and Nkx2.2 [2] |
| --- | --- | --- |
| c1ccc2c(-c3cnn4cc(-c5ccc(N6CCNCC6)cc5)cnc34)ccnc2c1 [LDN-193189] | > 99 |  |
| NC(=O)c1ccc(-c2nc(-c3ccc4c(c3)OCO4)c(-c3ccccn3)[nH]2)cc1 [SB431542] | > 99 |  |
| c1cc(-c2cnn3cc(-c4ccc(OCCN5CCCCC5)cc4)cnc23)ccn1 [dorsomorphin] | > 99 |  |
| CC1=C(/C=C/C(C)=C/C=C/C(C)=C/C(=O)O)C(C)(C)CCC1 [retinoic acid] |  | upregulation |
| noggin: a BMP antagonist; secreted polypeptide encoded by the NOG gene (protein, UniProt Q13253 28-232, looked up) Noggin: QHYLHIRPAPSDNLPLVDLIEHPDPIFDPKEKDLNETLLRSLLGGHYDPGFMATSPPEDRPGGGGGAAGGAEDLAELDQLLRQRPSGAMPSEIKGLEFSEGLAQGKKQRLSKKLRRKLQMWLWSQTFCPVLYAWNDLGSRFWPRYVKVGSCFSKRSCSVPEGMVCKPSKSVHLTVLRWRCQRRGGQRCGWIPIQYPIISECKCSC | > 99 |  |
